# Laboratory results published in PubChem BioAssay AID2685 (National Center for Advancing Translational Sciences (NCATS), 2010).
# This is one part of the list. The main result of the screen is listed elsewhere. These columns were measured beside it and carry no call. The list favours compounds with an active or inconclusive main result. The note in brackets gives the kind of curve behind each potency; many fits are weak.
# Experiment: qHTS Assay for Lipid Storage Modulators in Drosophila S3 Cells;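 as to cell number change: cells counted by Cell Tracker Red CMTPX staining in the red channel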
# Conditions: BODIPY lipid droplet fluorescence, 18-24 h; for cell number change: measured here: cell count max response, cells fed with added oleic acid
# Outline: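 Drosophila S3 cells got compounds at several concentrations plus oleic acid (400 uM solution). Laser-scanning cytometry with 488 nm excitation read lipid droplets at 500-530 nm and cells at 575-640 nm. Percent activity was relative to 20 uM Triacsin C.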
# [1] = measured here: cell number channel AC50, cells fed with added oleic acid
# [2] = measured here: lipid fluorescence (Fed channel) AC50, cells fed with added oleic acid
SMILES,AC50 [1],AC50 [2],cell number change
CCOc1ccc(S(=O)(=O)N(C)C)cc1-c1nc2c(C(C)(C)C)nn(C)c2c(=O)[nH]1,"2.91 µM [rising, partial curve]","0.58 µM [rising, single point]",
NC1=NC(c2ccc(F)cc2)n2c(nc3ccccc32)N1 (configuration not stated),,"5.8 µM [falling, single point]",0.97%
COc1ccc(OC)c2[nH]c(=O)c(CCNC(=O)COc3ccccc3)cc12,,"29.1 µM [falling, single point]",-18.7%
Cc1ccc2ncccc2c1NC(=S)NC(=O)c1ccccc1,,,21%
CCOC(=O)C(C)Oc1ccc(=O)n(-c2ccccc2)n1 (configuration not stated),,,23%
CN1C(=O)CC(N2CCC(C(N)=O)(N3CCCCC3)CC2)C1=O (configuration not stated),"0.0259 µM [falling, full curve, poor fit]","16.4 µM [falling, partial curve]",-19.1%
CN1CCN(C(=S)NC(=O)c2ccccc2Br)CC1,,"29.1 µM [falling, single point]",-21.8%
CCc1cccc(Nc2c([N+](=O)[O-])cc(C(=O)N3CC(=O)Nc4ccccc43)cc2[N+](=O)[O-])c1,,,-5.63%
CCCCN1c2ccccc2N(CCCO)c2cc(C)nnc21,"14.6 µM [rising, partial curve]","9.2 µM [rising, partial curve]",34.4%
Cc1cc(=O)oc2cc(OCc3nnc(-c4ccccc4Br)o3)ccc12,,"7.31 µM [falling, single point]",-10.1%
CC(=O)c1c(C)[nH]c(C(=O)OC(C)C(=O)Nc2cc(S(=O)(=O)N3CCCCC3)ccc2Cl)c1C (configuration not stated),,"2.06 µM [rising, single point]",-2.1%
CSc1ccccc1OCc1cc(C(=O)N(C)C2CCCc3ccccc32)no1 (configuration not stated),,"9.2 µM [falling, partial curve]",-27.7%
Cc1ccc(C(C(=O)NC(C)(C)C)N(C(=O)CCC(=O)Nc2ccccn2)c2ccccc2F)cc1 (configuration not stated),,,-25.2%
Cc1cccc(N2CCN(C(=O)C3CCC(CNS(=O)(=O)c4cccs4)CC3)CC2)c1C (configuration not stated),,,-26.2%
Cc1ccc(-c2csc3ncnc(SCC(=O)Nc4nnc(C)s4)c23)cc1,"3.26 µM [rising, single point]",,12.5%
Cc1cccc(C)c1Nc1nnc(SCC(=O)Nc2cc(S(=O)(=O)N3CCCCC3)ccc2Cl)s1,,"1.3 µM [rising, full curve, poor fit]",2.39%
CCN(CC)S(=O)(=O)c1cc(-c2nnc(-c3ccc(Br)cc3)o2)ccc1Cl,,"0.517 µM [rising, full curve]",-9.99%
Cn1cccc1/C=N/n1c(-c2ccc(C(C)(C)C)cc2)n[nH]c1=S,"29.1 µM [falling, single point]","29.1 µM [falling, single point]",-50.5%
CC(C)(C)N1CC(c2nc3ccccc3n2Cc2ccccc2)CC1=O (configuration not stated),,"29.1 µM [rising, single point]",
C=CCNCCOCCSc1ccc(Cl)cc1,,"2.06 µM [rising, single point]",1.38%

SMILES,AC50 [1],AC50 [2],cell number change
CC(C)=CCCC(C)CN(C)CCc1ccccn1 (configuration not stated),,"5.8 µM [falling, single point]",
COCCN1C(=O)c2ccccc2C(C(=O)NCCCN2CCCC2)C1c1c[nH]c2ccccc12 (configuration not stated),,"1.84 µM [rising, full curve, poor fit]",21.1%
NC(N)=N/N=C/c1ccc(OCc2ccc(Cl)cc2)cc1,"20.6 µM [falling, partial curve]","23.1 µM [falling, single point]",-85.6%
C/C(CC(=O)NCc1ccco1)=N\NC(=O)c1ccc([N+](=O)[O-])cc1Cl,,"29.1 µM [falling, single point]",23.9%
Cc1ccc2nc(Nc3nc(CSc4nnnn4-c4ccccc4)cc(=O)[nH]3)nc(C)c2c1,"6.51 µM [rising, single point]","6.51 µM [rising, single point]",19.9%
C[C@@H]1NC(=O)[C@@]2(C)[C@@H](c3ccccc3)[C@H]3COc4ccccc4[C@@H]3N2C1=O,,,-16.6%
Cc1cc(/C=C2\Cc3ccccc3C2=O)c(C)n1-c1ccccc1,,"0.0651 µM [rising, full curve]",16.3%
CC(C)c1cc(C(=O)N2CCCC(CCC(=O)N3CCN(c4ccccn4)CC3)C2)no1 (configuration not stated),,"13 µM [rising, partial curve]",20.3%
COc1cccc(NC(=O)c2cc(-c3ccncc3)nc3c(C)cc(C)cc23)c1,,,136%
O=C1C(C=Nc2ccccc2O)=C(O)c2ccccc21,"29.1 µM [falling, single point]","29.1 µM [falling, single point]",-45.2%
CC1CCC2(CC1)Nc1ccccc1C(=O)N2c1ccccc1 (configuration not stated),"29.1 µM [rising, single point]","0.58 µM [rising, single point]",35.3%
Cc1sc2nc(CN(Cc3cccs3)C(=O)C3CC3)[nH]c(=O)c2c1C,"0.0058 µM [falling, full curve, poor fit]",,-4.82%
CSCC(C)N1CCC(CO)(CCCc2ccccc2)CC1 (configuration not stated),,"3.66 µM [falling, single point]",1.72%
CSCC[C@H](NC(=O)OC(C)(C)C)c1nnc(SCC(N)=O)o1,"29.1 µM [falling, single point]","5.17 µM [falling, full curve]",-36.1%
N#Cc1ccc(C(=O)NCC(c2ccco2)N2CCCCC2)cc1 (configuration not stated),,,-17.5%
O=c1[nH]c(C2CCN(S(=O)(=O)c3ccccc3)CC2)nc2c1nnn2Cc1ccccc1,,"16.4 µM [falling, single point]",-16.8%
CSc1ccccc1COC(=O)Nc1ccccc1C,,"29.1 µM [falling, single point]",8.21%
CCOc1ccc(Br)cc1S(=O)(=O)Nc1cccc(S(=O)(=O)N(CC)CC)c1,"29.1 µM [rising, partial curve]",,400%
O=C(CSc1nnc(SCc2ccc(Cl)cc2)s1)N/N=C/c1ccccc1C(=O)O,,"0.00461 µM [falling, full curve, poor fit]",
COc1ccc(-n2c(=O)[nH]c3cc(C(=O)NCCc4ccc(Cl)cc4)ccc3c2=O)cc1OC,"2.91 µM [rising, single point]",,

# 4 entries picked at random from those above, as already listed:
SMILES,AC50 [1],AC50 [2],cell number change
CC(=O)c1c(C)[nH]c(C(=O)OC(C)C(=O)Nc2cc(S(=O)(=O)N3CCCCC3)ccc2Cl)c1C (configuration not stated),,"2.06 µM [rising, single point]",-2.1%
Cc1cc(/C=C2\Cc3ccccc3C2=O)c(C)n1-c1ccccc1,,"0.0651 µM [rising, full curve]",16.3%
C[C@@H]1NC(=O)[C@@]2(C)[C@@H](c3ccccc3)[C@H]3COc4ccccc4[C@@H]3N2C1=O,,,-16.6%
NC(N)=N/N=C/c1ccc(OCc2ccc(Cl)cc2)cc1,"20.6 µM [falling, partial curve]","23.1 µM [falling, single point]",-85.6%

# More compounds follow:

SMILES,AC50 [1],AC50 [2],cell number change
Cc1ccc(CN(C(=O)c2cccs2)C2CCS(=O)(=O)C2)cc1 (configuration not stated),,,-2.45%
COc1cc(CC(=O)Nc2ccc(S(=O)(=O)NC3=NCCCCC3)cc2)cc(OC)c1OC,,"3.26 µM [falling, single point]",
O=C(CCc1ccccc1Cl)Nc1ccc(S(=O)(=O)Nc2nccs2)cc1,"3.26 µM [rising, partial curve]",,
Cc1cccc(-n2nc3c(c2NC(=O)c2ccco2)CS(=O)C3)c1C (configuration not stated),"1.84 µM [falling, single point]",,0.57%
Fc1cccc(Cl)c1CNc1ccc(N2CCCC2)cc1,,,36.2%
Cc1ccc(C)c(S(=O)(=O)NCc2ccc(C(=O)N3CCCCCC3)cc2)c1,"7.31 µM [falling, partial curve]","0.92 µM [falling, full curve, poor fit]",-42.8%
CCOc1ccc(-n2ccnc(SCC(=O)NCc3cccc(OC)c3)c2=O)cc1,"0.0366 µM [rising, full curve, poor fit]",,36.5%
Oc1ccc(/C=N/Nc2ncnc3c2ncn3Cc2ccccc2)cc1O,,"6.51 µM [falling, single point]",-23.4%
COCC(C)n1c(C)cc(C(=O)COC(=O)c2n[nH]c3ccccc23)c1C (configuration not stated),,"10.3 µM [rising, partial curve]",7.36%
CC1C(=O)N2CCCc3cc(S(=O)(=O)N(C)c4ccccc4)cc1c32 (configuration not stated),"18.4 µM [falling, single point]","29.1 µM [falling, single point]",-92.4%
Cc1nn(C)c(C(=O)Sc2cccc(Cl)c2)c1[N+](=O)[O-],,"6.51 µM [falling, partial curve, poor fit]",-28.3%
Cc1ccc(-n2c(O)c(C=NCc3ccccn3)c3ccccc3c2=O)cc1C,"7.31 µM [rising, partial curve]","1.16 µM [rising, full curve, poor fit]",30%
COc1ccc(OCCCn2cc(/C=C3/C(=N)N4C=C(C)SC4=NC3=O)c3ccccc32)cc1,"2.59 µM [rising, full curve]",,83.3%
CC[C@H](C)Cc1cn([C@@H](CCCN=C(NC(=O)OC(C)(C)C)NC(=O)OC(C)(C)C)C(=O)NCCCCCCCCCCC(=O)N2CCN(C(=O)OC(C)(C)C)CC2)nn1,"6.51 µM [falling, partial curve]","5.8 µM [falling, full curve]",-77.2%
CCN(CC)CCN1C(=O)C(O)=C(C(=O)c2cc3ccccc3o2)C1c1cccnc1 (configuration not stated),,"0.116 µM [falling, full curve, poor fit]",-5.09%
O=C(CCC(=O)Nc1ccc(F)cc1)N/N=C/c1c[nH]c2ccccc12,,"4.61 µM [falling, full curve, poor fit]",-5.83%
O=C(Cn1c(=O)oc2cc(S(=O)(=O)N3CCc4ccccc43)ccc21)N1CCCCC1,"6.51 µM [falling, single point]",,-34.8%
O=C(CN1CCN(c2ccccc2)CC1)Nc1cccc(C(F)(F)F)c1,,"29.1 µM [falling, single point]",-16.6%
